Construct, isoform or probe ends are uncertain for at least one entry. Where cells or extracts were used, other partners may take part. For part of these data: At least one verdict rests on a figure or table, not on a statement of the authors.
Tests used:
Experiment in all cases: pull-down MS
Conditions in all cases: azide at one end (5' or 3'), PEG23-bead linked; protein in an extract
[1] = target: P-element somatic inhibitor (Drosophila melanogaster) (UniProt A1ZAK9)
[2] = target: Half pint (Drosophila melanogaster) (UniProt Q8T6B9)
[3] = target: Poly(A)-binding protein (Drosophila melanogaster) (UniProt P21187)
[4] = target: Mad (Drosophila melanogaster) (UniProt P42003)
[5] = target: Host cell factor (Drosophila melanogaster) (UniProt Q9V4C8)
[6] = target: Myeloid leukemia factor (Drosophila melanogaster) (UniProt Q9NKV0)
[7] = target: HmgD (Drosophila melanogaster) (UniProt Q05783)
[8] = target: Hmg-2 (Drosophila melanogaster) (UniProt Q9W2K8)
[9] = target: TAF12 (Drosophila melanogaster) (UniProt P49905)
[10] = target: Modulo (Drosophila melanogaster) (UniProt P13469)
[11] = target: TAF6 (Drosophila melanogaster) (UniProt P49847)
[12] = target: Larp4B (Drosophila melanogaster) (UniProt Q9I7T7)
[13] = target: TAF5 (Drosophila melanogaster) (UniProt P49846)
[14] = target: Piwi (Drosophila melanogaster) (UniProt Q9VKM1)
[15] = target: Maelstrom (Drosophila melanogaster) (UniProt Q9VNS0)
[16] = target: Barren (Drosophila melanogaster) (UniProt Q9VIP9)
[17] = target: Net (Drosophila melanogaster) (UniProt Q9VPI8)
[18] = target: CNBP (Drosophila melanogaster) (UniProt Q8T8R1)
[19] = target: Topoisomerase II (Drosophila melanogaster) (UniProt P15348)
[20] = target: CPSF160 (Drosophila melanogaster) (UniProt Q9V726)
[21] = target: ATP-dependent DNA helicase RecQ4 (Drosophila melanogaster) (UniProt Q9VSE6)
[22] = target: Drosocross 3 (Drosophila melanogaster) (UniProt Q9VST0)

By UniProt entry, the sequences of proteins in these tests, tags left out. Where a name states a change or a piece, a line headed by the entry shows the natural chain unless it says otherwise.
UniProt Q8T6B9: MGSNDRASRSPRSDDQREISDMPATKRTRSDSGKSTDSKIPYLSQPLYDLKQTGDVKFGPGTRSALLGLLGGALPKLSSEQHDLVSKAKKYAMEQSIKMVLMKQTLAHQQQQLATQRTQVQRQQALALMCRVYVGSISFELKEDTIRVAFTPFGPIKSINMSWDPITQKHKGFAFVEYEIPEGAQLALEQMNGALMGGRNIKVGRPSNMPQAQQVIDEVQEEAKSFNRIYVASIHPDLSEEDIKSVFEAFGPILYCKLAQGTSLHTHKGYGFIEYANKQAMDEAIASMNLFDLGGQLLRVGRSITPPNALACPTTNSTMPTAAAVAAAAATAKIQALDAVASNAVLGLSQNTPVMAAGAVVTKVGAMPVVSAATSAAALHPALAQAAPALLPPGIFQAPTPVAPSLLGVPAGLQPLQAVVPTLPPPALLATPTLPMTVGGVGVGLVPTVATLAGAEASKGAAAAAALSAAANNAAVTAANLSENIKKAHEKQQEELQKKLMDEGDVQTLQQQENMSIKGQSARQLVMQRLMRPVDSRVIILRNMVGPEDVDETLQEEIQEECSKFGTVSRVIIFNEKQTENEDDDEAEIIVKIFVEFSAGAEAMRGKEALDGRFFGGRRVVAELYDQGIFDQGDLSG
UniProt Q9V4C8: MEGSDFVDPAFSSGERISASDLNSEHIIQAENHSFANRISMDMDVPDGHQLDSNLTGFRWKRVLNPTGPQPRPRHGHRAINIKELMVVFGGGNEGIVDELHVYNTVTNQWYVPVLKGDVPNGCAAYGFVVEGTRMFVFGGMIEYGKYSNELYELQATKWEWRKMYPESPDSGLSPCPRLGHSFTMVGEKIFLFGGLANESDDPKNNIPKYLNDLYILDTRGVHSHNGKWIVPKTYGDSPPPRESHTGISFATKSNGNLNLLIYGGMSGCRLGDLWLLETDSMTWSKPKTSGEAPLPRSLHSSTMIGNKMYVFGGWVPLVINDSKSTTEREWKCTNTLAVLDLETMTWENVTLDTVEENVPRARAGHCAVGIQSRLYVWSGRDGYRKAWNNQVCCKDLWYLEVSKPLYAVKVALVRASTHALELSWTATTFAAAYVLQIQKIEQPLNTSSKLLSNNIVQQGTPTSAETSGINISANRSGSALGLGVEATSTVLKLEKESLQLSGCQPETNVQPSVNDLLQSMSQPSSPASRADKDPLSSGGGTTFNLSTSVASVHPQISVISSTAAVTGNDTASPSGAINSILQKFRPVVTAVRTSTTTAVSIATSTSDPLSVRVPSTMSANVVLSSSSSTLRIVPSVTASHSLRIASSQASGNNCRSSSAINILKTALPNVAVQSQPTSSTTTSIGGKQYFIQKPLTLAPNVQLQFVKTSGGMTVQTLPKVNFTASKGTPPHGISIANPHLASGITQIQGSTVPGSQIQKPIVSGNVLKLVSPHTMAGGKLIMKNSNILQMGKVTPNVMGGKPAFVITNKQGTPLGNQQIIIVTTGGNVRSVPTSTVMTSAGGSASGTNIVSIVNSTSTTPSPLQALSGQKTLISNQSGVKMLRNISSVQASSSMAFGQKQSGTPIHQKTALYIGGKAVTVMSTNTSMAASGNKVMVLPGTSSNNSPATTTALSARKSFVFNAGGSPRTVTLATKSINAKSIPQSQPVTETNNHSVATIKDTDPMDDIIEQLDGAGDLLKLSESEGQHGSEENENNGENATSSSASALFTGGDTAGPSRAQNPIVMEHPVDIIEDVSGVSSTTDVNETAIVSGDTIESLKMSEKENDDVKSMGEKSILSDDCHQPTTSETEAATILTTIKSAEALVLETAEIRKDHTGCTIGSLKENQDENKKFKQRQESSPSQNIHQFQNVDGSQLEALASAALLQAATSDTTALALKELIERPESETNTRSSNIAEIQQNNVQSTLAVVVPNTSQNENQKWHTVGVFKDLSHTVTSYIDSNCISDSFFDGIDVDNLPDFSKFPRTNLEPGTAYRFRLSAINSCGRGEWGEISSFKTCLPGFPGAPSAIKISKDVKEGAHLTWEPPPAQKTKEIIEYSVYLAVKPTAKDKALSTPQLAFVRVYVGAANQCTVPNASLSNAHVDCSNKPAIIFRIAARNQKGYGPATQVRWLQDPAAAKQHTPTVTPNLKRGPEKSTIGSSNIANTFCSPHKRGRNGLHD
UniProt Q9NKV0: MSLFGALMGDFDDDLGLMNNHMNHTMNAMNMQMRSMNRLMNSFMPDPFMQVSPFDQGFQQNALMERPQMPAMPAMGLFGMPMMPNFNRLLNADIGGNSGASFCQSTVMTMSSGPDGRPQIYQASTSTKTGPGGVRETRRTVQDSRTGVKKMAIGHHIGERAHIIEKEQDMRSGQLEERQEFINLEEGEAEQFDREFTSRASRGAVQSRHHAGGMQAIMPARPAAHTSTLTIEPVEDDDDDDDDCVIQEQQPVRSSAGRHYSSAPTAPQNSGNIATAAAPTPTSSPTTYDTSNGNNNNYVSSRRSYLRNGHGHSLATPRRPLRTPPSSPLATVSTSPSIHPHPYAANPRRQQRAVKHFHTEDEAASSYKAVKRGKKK
UniProt Q05783: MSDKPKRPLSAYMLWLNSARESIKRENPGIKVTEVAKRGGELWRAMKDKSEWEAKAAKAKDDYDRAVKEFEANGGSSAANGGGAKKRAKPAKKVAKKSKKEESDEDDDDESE
UniProt P49905: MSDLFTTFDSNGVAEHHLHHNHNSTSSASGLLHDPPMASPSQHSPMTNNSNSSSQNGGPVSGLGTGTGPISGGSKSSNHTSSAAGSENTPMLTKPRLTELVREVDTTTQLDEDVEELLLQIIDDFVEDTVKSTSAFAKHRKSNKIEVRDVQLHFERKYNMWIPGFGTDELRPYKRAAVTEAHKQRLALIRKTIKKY
UniProt P49847: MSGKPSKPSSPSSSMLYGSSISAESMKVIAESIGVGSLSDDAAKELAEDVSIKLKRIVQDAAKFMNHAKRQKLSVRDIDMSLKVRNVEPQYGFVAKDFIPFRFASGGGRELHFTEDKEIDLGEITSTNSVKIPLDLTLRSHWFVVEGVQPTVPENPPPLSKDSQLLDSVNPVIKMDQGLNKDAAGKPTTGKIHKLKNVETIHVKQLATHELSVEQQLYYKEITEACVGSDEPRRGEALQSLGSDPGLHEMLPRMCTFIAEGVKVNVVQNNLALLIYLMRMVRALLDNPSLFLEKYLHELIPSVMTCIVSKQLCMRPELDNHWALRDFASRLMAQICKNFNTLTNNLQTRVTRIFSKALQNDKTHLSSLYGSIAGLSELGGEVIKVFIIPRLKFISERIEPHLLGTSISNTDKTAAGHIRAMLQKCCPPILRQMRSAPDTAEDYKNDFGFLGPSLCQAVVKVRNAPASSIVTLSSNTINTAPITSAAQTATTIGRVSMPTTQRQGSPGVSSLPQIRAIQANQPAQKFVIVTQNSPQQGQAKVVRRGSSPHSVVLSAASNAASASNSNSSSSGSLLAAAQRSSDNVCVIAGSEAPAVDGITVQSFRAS
UniProt P49846: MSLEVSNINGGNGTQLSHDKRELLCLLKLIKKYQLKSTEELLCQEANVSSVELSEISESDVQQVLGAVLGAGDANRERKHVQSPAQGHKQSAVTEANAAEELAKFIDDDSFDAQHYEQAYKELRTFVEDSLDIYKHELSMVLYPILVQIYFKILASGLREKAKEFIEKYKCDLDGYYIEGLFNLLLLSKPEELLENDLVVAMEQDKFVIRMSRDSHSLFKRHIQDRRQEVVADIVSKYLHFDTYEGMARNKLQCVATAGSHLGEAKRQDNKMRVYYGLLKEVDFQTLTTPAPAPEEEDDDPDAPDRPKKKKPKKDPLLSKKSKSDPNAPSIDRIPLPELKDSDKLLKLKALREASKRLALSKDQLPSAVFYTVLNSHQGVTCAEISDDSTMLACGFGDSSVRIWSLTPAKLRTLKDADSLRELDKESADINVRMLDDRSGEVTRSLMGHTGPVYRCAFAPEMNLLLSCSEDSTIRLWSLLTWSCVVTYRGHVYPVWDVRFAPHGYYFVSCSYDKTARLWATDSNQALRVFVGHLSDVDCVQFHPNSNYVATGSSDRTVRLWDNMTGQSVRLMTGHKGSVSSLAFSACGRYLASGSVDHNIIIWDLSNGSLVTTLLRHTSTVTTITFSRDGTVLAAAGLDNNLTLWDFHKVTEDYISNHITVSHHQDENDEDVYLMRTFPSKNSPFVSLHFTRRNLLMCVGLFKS
UniProt Q9VNS0: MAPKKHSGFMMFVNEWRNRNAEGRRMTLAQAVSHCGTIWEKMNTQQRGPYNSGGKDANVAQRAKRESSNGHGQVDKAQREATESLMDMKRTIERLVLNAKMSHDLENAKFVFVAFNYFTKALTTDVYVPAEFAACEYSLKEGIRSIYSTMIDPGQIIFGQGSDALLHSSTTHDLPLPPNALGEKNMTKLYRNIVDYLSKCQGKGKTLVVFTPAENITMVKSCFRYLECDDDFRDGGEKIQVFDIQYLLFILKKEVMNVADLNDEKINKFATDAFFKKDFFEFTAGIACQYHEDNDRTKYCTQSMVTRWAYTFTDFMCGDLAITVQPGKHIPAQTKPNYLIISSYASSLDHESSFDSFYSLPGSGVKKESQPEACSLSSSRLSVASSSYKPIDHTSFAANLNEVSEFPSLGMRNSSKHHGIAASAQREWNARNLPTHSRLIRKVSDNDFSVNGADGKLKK
UniProt Q8T8R1: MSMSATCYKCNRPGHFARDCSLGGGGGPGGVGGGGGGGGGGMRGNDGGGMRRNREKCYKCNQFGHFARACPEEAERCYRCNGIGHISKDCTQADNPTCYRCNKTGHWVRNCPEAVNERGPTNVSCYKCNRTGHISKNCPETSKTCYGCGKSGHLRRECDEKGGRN
UniProt Q9V726: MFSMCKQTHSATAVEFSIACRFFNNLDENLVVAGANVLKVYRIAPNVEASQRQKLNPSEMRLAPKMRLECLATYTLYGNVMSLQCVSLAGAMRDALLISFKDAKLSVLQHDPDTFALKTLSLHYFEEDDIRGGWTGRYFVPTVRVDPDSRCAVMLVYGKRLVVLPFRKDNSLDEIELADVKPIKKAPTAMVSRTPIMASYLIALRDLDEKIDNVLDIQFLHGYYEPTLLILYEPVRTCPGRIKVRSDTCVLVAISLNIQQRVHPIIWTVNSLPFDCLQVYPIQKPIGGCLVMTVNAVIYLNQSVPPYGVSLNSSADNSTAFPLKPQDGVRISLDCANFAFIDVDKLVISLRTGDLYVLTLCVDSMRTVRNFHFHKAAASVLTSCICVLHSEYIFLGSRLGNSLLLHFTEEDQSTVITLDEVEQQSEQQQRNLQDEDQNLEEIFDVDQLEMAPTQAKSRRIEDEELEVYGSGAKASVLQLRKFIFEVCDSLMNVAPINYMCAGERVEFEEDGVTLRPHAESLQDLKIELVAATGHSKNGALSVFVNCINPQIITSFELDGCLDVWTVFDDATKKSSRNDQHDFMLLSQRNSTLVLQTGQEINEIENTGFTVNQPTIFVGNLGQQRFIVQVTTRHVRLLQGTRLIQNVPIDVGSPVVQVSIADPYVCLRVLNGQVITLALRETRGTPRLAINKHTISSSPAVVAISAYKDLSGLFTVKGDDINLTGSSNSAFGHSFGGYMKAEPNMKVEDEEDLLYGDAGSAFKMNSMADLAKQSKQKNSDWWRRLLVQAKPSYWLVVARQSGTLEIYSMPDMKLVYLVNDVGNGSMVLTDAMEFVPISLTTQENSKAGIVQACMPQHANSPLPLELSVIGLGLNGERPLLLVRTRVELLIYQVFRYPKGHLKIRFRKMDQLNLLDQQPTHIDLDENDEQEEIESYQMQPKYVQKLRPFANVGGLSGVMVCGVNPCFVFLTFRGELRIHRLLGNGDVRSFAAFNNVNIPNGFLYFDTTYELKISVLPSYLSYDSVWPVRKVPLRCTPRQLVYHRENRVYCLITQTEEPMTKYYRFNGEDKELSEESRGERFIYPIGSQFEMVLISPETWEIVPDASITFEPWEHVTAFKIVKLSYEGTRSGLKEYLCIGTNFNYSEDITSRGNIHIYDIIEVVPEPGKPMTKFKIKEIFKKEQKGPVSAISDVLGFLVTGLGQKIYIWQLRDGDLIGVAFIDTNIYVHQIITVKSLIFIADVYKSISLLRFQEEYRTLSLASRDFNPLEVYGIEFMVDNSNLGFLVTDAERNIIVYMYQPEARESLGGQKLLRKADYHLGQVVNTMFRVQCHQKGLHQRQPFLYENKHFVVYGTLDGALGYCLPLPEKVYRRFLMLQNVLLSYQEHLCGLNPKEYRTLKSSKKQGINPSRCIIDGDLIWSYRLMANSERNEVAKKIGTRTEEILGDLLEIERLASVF

Measured: binding result

GAGCGCGGCAGTCTGGTACGATAGAAATTTTATTTAAGCCACAG (double strand) [P31/P32 TATA promoter]
not listed: [16] | [17] | [18] | [19] | [20] | [21] | [22]
binds: all other assays above

GAAGCTTTTTGTTGTTTTTGCAGCTGCCGTTTTCGCCCTT (double strand) [P1/P2 upstream enhancer cluster]
not listed: [15]
binds: all other assays above
